These are yes or no findings as the source states them, for the method shown. Binding seen in cells or lysates may run through a third protein. Some binding calls cover weakened binding; strength is not graded here. For some of these results: Sequences can lack the tags named with a protein.
T1: Myc-tagged TM6SF2 (mouse) (UniProt Q8R1J1)
T1 sequence: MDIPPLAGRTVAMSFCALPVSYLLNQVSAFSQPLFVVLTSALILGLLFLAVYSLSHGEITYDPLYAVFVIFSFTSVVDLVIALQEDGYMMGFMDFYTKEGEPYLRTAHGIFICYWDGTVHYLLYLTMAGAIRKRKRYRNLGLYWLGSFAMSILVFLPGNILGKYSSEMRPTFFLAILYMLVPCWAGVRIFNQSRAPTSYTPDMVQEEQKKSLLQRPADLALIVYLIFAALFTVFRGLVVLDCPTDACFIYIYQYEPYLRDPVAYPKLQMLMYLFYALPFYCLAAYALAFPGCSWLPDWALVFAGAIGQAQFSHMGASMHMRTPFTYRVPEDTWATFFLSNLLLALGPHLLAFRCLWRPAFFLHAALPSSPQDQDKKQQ

Amino acid sequences for entries named in this document (tags omitted). Residues count along the entry.
UniProt Q7TMA5, residues 28-4743: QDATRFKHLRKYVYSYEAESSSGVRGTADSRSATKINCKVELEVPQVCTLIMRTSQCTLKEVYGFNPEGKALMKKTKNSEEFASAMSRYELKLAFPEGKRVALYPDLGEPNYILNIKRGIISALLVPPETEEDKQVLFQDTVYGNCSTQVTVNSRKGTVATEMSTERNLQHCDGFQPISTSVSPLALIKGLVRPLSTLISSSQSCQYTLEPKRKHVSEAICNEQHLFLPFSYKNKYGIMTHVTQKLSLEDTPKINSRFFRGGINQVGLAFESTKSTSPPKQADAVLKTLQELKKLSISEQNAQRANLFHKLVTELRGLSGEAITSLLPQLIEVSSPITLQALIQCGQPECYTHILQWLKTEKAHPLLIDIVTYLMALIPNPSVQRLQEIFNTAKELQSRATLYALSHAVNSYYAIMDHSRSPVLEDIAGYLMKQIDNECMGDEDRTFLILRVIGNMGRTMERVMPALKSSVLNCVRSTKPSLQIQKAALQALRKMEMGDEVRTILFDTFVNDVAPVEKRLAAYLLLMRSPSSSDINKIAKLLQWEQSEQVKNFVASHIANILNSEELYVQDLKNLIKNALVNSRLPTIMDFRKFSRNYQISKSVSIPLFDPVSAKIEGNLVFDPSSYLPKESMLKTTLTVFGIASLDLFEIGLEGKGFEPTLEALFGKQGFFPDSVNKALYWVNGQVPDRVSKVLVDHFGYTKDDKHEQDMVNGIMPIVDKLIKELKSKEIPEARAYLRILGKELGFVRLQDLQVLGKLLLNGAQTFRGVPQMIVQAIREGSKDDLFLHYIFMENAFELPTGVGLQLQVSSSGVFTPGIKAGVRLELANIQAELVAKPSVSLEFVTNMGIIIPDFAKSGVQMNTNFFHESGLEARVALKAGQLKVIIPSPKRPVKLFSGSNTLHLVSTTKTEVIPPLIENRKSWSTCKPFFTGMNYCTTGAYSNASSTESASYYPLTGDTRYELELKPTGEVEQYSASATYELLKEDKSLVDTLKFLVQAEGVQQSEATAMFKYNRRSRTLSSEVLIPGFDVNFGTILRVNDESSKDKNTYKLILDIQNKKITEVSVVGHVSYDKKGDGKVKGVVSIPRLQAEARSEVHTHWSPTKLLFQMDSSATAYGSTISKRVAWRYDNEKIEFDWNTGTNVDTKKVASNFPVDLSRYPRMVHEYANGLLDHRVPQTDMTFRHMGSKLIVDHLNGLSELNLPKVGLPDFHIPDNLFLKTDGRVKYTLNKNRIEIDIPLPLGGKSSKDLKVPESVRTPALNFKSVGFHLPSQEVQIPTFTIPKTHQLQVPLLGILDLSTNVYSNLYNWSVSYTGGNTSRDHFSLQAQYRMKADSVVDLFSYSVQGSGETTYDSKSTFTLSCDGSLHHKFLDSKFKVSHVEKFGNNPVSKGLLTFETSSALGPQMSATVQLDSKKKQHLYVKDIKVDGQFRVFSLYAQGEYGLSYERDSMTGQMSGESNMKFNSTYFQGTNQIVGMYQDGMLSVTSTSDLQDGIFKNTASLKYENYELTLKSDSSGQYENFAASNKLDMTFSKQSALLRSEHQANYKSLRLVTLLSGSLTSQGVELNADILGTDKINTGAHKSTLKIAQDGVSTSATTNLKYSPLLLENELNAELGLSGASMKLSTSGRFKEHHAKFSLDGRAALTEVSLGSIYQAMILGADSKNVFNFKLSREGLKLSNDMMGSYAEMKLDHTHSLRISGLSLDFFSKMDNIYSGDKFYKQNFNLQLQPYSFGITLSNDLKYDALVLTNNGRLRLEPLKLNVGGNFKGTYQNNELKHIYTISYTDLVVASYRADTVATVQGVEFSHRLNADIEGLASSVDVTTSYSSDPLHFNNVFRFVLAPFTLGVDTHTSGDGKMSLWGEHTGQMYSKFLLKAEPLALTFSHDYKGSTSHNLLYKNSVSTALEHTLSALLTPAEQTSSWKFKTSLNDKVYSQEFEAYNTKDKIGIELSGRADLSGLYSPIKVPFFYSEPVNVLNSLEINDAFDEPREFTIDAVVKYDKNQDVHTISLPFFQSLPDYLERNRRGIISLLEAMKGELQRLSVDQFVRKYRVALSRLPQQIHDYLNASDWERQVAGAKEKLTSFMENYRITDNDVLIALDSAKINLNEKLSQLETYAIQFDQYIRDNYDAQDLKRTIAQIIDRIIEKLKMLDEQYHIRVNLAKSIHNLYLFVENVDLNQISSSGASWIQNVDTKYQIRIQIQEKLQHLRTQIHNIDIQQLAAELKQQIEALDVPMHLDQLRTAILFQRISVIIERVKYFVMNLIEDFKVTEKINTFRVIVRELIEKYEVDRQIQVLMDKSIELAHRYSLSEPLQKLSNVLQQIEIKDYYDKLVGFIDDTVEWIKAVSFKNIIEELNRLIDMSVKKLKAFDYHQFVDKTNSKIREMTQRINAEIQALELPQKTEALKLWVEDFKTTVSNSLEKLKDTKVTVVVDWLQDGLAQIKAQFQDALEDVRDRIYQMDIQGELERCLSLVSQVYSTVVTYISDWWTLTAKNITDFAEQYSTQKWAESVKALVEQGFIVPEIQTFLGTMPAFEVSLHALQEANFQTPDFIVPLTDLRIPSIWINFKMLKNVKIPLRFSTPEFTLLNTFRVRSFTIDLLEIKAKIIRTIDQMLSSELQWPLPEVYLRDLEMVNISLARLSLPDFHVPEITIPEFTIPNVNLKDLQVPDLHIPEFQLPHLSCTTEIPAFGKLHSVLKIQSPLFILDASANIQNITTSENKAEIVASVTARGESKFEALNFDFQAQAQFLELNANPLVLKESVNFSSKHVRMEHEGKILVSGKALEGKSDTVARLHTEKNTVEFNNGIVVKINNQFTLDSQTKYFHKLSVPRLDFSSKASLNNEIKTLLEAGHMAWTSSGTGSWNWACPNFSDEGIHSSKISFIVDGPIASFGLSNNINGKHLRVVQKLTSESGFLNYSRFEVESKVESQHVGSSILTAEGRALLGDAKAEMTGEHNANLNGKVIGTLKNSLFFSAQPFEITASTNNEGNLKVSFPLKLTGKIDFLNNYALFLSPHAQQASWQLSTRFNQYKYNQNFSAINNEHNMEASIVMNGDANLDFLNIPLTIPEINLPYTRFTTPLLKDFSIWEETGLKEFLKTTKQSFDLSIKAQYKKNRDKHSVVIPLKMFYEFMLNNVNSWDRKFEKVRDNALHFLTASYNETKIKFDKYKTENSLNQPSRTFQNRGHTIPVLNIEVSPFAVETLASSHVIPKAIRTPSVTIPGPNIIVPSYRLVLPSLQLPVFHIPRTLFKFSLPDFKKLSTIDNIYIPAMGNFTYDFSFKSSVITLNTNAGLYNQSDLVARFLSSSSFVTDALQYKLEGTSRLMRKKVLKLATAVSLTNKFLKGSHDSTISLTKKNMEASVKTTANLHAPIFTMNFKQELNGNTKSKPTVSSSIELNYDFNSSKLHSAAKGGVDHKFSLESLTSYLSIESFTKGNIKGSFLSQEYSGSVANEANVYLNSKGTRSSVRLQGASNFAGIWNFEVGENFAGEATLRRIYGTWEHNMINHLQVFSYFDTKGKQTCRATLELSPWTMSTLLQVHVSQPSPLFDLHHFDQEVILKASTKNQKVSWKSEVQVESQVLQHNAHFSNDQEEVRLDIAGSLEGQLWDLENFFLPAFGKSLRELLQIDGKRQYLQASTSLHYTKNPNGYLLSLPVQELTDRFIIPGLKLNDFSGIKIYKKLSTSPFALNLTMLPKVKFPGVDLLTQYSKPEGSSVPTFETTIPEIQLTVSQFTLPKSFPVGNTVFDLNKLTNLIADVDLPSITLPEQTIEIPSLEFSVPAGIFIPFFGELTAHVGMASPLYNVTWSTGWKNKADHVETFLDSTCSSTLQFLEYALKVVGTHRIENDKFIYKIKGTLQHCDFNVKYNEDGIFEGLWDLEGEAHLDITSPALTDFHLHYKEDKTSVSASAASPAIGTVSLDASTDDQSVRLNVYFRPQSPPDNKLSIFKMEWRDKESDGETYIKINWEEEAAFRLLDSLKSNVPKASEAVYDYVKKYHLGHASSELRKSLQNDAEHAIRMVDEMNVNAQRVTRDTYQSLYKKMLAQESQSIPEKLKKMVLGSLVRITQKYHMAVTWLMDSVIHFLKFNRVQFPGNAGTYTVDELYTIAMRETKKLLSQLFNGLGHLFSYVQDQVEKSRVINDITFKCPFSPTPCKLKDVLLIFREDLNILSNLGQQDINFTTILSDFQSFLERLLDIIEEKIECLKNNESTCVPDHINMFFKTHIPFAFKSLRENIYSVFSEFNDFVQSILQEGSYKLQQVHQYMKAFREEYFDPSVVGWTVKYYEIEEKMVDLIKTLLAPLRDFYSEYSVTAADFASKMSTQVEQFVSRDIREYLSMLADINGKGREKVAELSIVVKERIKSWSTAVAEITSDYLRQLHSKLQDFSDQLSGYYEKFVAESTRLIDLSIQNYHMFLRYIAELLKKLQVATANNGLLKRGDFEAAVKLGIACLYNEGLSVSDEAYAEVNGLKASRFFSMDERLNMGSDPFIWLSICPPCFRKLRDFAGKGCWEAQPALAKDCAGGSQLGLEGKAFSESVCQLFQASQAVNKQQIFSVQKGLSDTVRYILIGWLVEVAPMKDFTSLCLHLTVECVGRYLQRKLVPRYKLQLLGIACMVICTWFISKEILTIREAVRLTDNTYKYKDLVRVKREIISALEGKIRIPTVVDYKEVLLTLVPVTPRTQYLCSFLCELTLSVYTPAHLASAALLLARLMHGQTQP


Key:
[1] = target: endogenous APOB (APOB100 and APOB48) of CRL1601 cells (rat (endogenous in CRL1601)) (UniProt Q7TMA5); experiment: co-IP; endogenous proteins; APOBs immunoprecipitated from CRL1601 lysates with protein A/G beads coupled with the anti-APOB antibody; immunoblotting; protein A/G beads (Ctr IgG) as control
[2] = target: T1, Myc-tagged TM6SF2 (mouse); experiment: co-IP; sequential immunoprecipitation from Huh7 cells transfected with FLAG-APOB48, Myc-TM6SF2 and EGFP-ERLIN1: first anti-FLAG beads, elution with 3×FLAG peptide, then anti-Myc beads; immunoblotting
[3] = target: T1, Myc-tagged TM6SF2 (mouse); experiment: co-IP; Huh7 cells co-transfected, harvested after 48 h; lysates in PBS, 0.1% NP-40 incubated with anti-FLAG or anti-MYC beads at 4°C for 2 h; immunoblotting

binding [3]	Binder	other results
	endogenous TM6SF2 of CRL1601 cells (protein, UniProt B0BNG2 1-378) MDIPPLAGRTVAMSLGALPVSYVLNQVSAFSQPLCVVLTSALVLGLLFMAVYSLSHGEITYDPLYAVFVVFSFTSVVDLVIALQEDGYLMGLMDFYAKEGEPYLRTAHGIFICYWDGTVHYLLYLTMAGAIRKRKRYRNLGLYWLGSFAMSLLVFLPGNILGKYSSEIRPTFFLAILYMLVPCWAGMRIFNQSPAPSSCTCDVVQEEQKKSLLQRPADLTLIVYLILAAFFTVFRGLVVLDCPADACFIYIYQYEPYLRDPVAYPKLQMLMYLFYALPFYCLAAYALTFPGCSWLPDWALVFAGAIGQAQFSHMGASMHLRTPFTYRVPEDTWATFLLSNLLFALGPHLLALRCLWRPAFFLRAAPPSSPQDQGKKQQ	binding [1]: binds
	EGFP-tagged ERLIN1 (protein, UniProt O75477 1-348) MNMTQARVLVAAVVGLVAVLLYASIHKIEEGHLAVYYRGGALLTSPSGPGYHIMLPFITTFRSVQTTLQTDEVKNVPCGTSGGVMIYIDRIEVVNMLAPYAVFDIVRNYTADYDKTLIFNKIHHELNQFCSAHTLQEVYIELFDQIDENLKQALQKDLNLMAPGLTIQAVRVTKPKIPEAIRRNFELMEAEKTKLLIAAQKQKVVEKEAETERKKAVIEAEKIAQVAKIRFQQKVMEKETEKRISEIEDAAFLAREKAKADAEYYAAHKYATSNKHKLTPEYLELKKYQAIASNSKIYFGSNIPNMFVDSSCALKYSDIRTGRESSLPSKEALEPSGENVIQNKESTG	binding [2]: binds
binds	ERLIN1 (co-expressed with Myc-tagged TM6SF2, Fig 3B) (protein, UniProt O75477 1-348) MNMTQARVLVAAVVGLVAVLLYASIHKIEEGHLAVYYRGGALLTSPSGPGYHIMLPFITTFRSVQTTLQTDEVKNVPCGTSGGVMIYIDRIEVVNMLAPYAVFDIVRNYTADYDKTLIFNKIHHELNQFCSAHTLQEVYIELFDQIDENLKQALQKDLNLMAPGLTIQAVRVTKPKIPEAIRRNFELMEAEKTKLLIAAQKQKVVEKEAETERKKAVIEAEKIAQVAKIRFQQKVMEKETEKRISEIEDAAFLAREKAKADAEYYAAHKYATSNKHKLTPEYLELKKYQAIASNSKIYFGSNIPNMFVDSSCALKYSDIRTGRESSLPSKEALEPSGENVIQNKESTG	
binds	ERLIN2 (co-expressed with Myc-tagged TM6SF2, Fig 3B) (protein, UniProt O94905 1-339) MAQLGAVVAVASSFFCASLFSAVHKIEEGHIGVYYRGGALLTSTSGPGFHLMLPFITSYKSVQTTLQTDEVKNVPCGTSGGVMIYFDRIEVVNFLVPNAVYDIVKNYTADYDKALIFNKIHHELNQFCSVHTLQEVYIELFDQIDENLKLALQQDLTSMAPGLVIQAVRVTKPNIPEAIRRNYELMESEKTKLLIAAQKQKVVEKEAETERKKALIEAEKVAQVAEITYGQKVMEKETEKKISEIEDAAFLAREKAKADAECYTAMKIAEANKLKLTPEYLQLMKYKAIASNSKIYFGKDIPNMFMDSAGSVSKQFEGLADKLSFGLEDEPLETATKEN	
